The results in this text go back to patent publication US8546524B2 (The United States of America, as represented by the …, priority 2006, dated 2013).

End groups of sequences in plain letters are not given here.

This data set in a line: general procedure: Fmoc solid-phase peptide synthesis; Rink-amide resin; HBTU/HOBt. The conditions noted are these: whole synthesis, Zorbax 300SB-C3 column, 0-100% 25 min gradient of 0.5% acetic acid in water and 0.5% acetic acid in acetonitrile.

Consider AcLTYAWHTSFKAL, for which the “final purity (method not given)” value is 100%.
With PalLTYAWHTSFKALGTTYQPLSG the figure was 96%; with PalTYAWHTSFKAL, 98%; with Ac-LTYAWHTSFKAL-Penetratin, 95%.
PalLTYAWHTSFKAL: the “final purity (method not given)” value stood at 96%.
As to SEKAASKINETMLRK-[…] ε-Pal, the “final purity (method not given)” value is 97%.
With PalRGVMTLFSIKSNHPGLLSEKA the figure was 96%; with LLSEKAASKINETMLRK-[…] ε-Pal, 96%; with AcLTYAWHTSFKAL (All-D), 98%.
As for AcTYAWHTSFKA, the “final purity (method not given)” value was determined as 99%.
Under AcYAWHTSFKALGTTYQPLSGKTSYK-[…] ε-Pal stands 95%; under PalLTYAWHTSFK, 97%.
For VWFVVLTYAWHTSFKAL, the “final purity (method not given)” value is recorded as 96%.
As to PaILTYAWHTSFKA, the “final purity (method not given)” value amounted to 98%.
Under PalRGVMTLFSIKSNHPGLLSEKAASKINETMLR stands 95%; under AcLTYAWHTSFKALGTTYQPLSGKTSYK-ε-Pal, 95%; under PalLTYAWHTSFKAL (All-D), 96%.
With PalRGVMTLFSIKSNHPGLLS, the “final purity (method not given)” value is given as 96%.
With PalLTYAWHTSFKALGTTYQPLSGKTSY the figure was 95%; with PalLFSIKSNHPGLLSEKAASKINETMLR, 95%.
Take WFVVLTYAWHTSFKAL: the “final purity (method not given)” value came out at 96%.
With PalRGVMTLFSIKSNH the figure was 97%; with PalLTYAWHTSFKALGTTYQPLSGKTSYK(ε-Pal), 95%; with AcAKFSTHWAYTLK(ε-Pal)-All-D, 97%.
With PalLTYAWHTSFKALGTTYQPLSGKYSY the figure was 95%.
With AcKFSTHWAYTLK(ε-Pal)All-D the figure was 98%; with PalLTYAWHTSFKALGTTYQP, 96%; with GTTYQPLSGKTSYK-[…] ε-Pal, 98%.
For RGVMTLFSIKSNHPGLLSEKAASKINETMLRK-ε […]Pal, the “final purity (method not given)” value worked out at 95%.
Take LFSIKSNHPGLLSEKAASKINETMLRK-[…] ε-Pal: the “final purity (method not given)” value amounted to 95%.
Under AcLAKFSTHWAYTLK(ε-Pal)-All-D stands 97%.
